Reference: patent US12059413B2, “Methods of inhibiting viruses using compositions targeting TSG101-ubiquitin interaction” (The Research Foundation for the State University of New York, priority 2016, dated 2024)
Read-outs that look alike come from different tables or passages of the source. At least one compound was matched to its structure with a doubt left.

Key:
[1] = molecular target: T1, Tsg101 UEV domain (Homo sapiens, UniProt Q99816); assay: NMR / LC-MS binding of compound to Tsg101 UEV domain
T1 construct: Tsg101 UEV domain (residues 2-145) was encoded in a pET-28b vector; His6-TEV site (N, cleaved yes); made in house; host or cells: E. coli Rosetta 2 (DE3) pLysS
T1 sequence (Q99816 2-145): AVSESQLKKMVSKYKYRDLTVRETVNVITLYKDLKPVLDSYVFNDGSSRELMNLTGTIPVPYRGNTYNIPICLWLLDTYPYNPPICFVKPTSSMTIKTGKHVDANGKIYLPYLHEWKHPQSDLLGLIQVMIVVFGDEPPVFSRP
Experimental: N16 (20 mM solution, DMSO) was added to Tsg101 UEV domain in a 10:1 ratio (N16 excess).
For binding studies using NMR spectroscopy, the following complexes were made: Tsg101 UEV-N16, UEV-PTAP, UEV-Ub, UEV-N16-PTAP, and UEV-N16-Ub, all in Tsg101 NMR buffer: 20 mM potassium phosphate, 50 mM NaCl, pH 5.8, with UEV concentration of 200 μM.

[2] = Primi et al 1999; cited from earlier work
[3] = molecular target: T2, Tsg101 (Homo sapiens, UniProt Q99816); assay: NWU screening / in vitro binding assay
T2 sequence (Q99816 2-145 limits assumed): T1 sequence (Q99816 2-145)
Description: Pantoprazole, Lansoprazole/Dexlansoprazole (dexlansoprazole is the active enantiomer of the racemic lansoprazole), and Rabeprazole were in the NWU screen but were not considered hits.

SMILES	residue bound in Tsg101 UEV (NMR and fluorescence perturbances) [1]	residue bound in Tsg101 UEV (NMR and fluorescence perturbances) ([1]; listed as pantoprazole)	time to form sulfenamide [2] [h]	binding in the NWU screening assay [3]
COc1ccnc(C[S+]([O-])c2nc3ccc(OC(F)F)cc3[nH]2)c1OC (centres unmarked) [Pantoprazole]	additional binding at C87	bind to residue C73	~9	
COCCCOc1ccnc(C[S+]([O-])c2nc3ccccc3[nH]2)c1C (centres unmarked) [Rabeprazole]	bind to residue C73			bound as well as tenatoprazole
